Results on one molecule are retold here after publication PMC4752240.

Results are given in words; binding and its absence hold for the method and conditions named. Tags and fused reporters may be left off the sequences shown.

The target of the test is CDC20.3, yeast two-hybrid fusion. Nature of the test: two-hybrid; bait fused with the GAL4 DNA binding domain (pDEST32), prey fused with the GAL4 activation domain (pDEST22); mating of yeast strains AH109 and Y187; growth on -His (weak interaction) or -His -Ade (strong interaction); three replicates.

B1: TDM1 (THREE DIVISION MUTANT1), yeast two-hybrid fusion (protein, UniProt Q9SUC3 1-434)
chain: MCPCVERRAPPGVYYTPPPARTSDHVAAMPMTERRRPPYSCSSSSERRDPFHIVHKVPSGDSPYVRAKHAQLIDKDPNRAISLFWTAINAGDRVDSALKDMAVVMKQLGRSDEGIEAIKSFRYLCSFESQDSIDNLLLELYKKSGRIEEEAVLLEHKLQTLEQGMGFGGRVSRAKRVQGKHVIMTIEQEKARILGNLGWVHLQLHNYGIAEQHYRRALGLERDKNKLCNLAICLMRMSRIPEAKSLLDDVRDSPAESECGDEPFAKSYDRAVEMLAEIESKKPEADLSEKFYAGCSFVNRMKENIAPGTANKNYSDVSSSPASVRPNSAGLYTQPRRCRLFEEETRGAARKLLFGKPQPFGSEQMKILERGEEEPMKRKKLDQNMIQYLHEFVKDTADGPKSESKKSWADIAEEEEAEEEEEERLQGELKTAEM
B1: the binding entry is “no binding”.
